Source: article PMC9394307, “Discovery of Putative Dual Inhibitor of Tubulin and EGFR by Phenotypic Approach on LASSBio-1586 Homologs” (Pharmaceuticals, 2022)

Assays:
Format in all cases: cell-based, human
HL-60 = experiment: MTT cell viability assay, HL-60; details: for SI GM16000/ HL-60: 72 h, ratio of CC50 values; for SI Lymphocyte/ HL-60: 48 hours, MTT
Description: (§1) The cytotoxic activity of compounds 3–13 was determined based on an MTT assay against different human tumor cell lines, using LASSBio-1586 (2), LASSBio-1735 (3), CA-4 (1) and pelitinib as standards (Table 2). To determine the cytotoxic selectivity index, compounds were also evaluated toward human lymphocytes (Table 3).
(§2) The target compounds were tested (0.0001–100 µM) for cytotoxic activity against selected human cancer cell lines, such as HL-60 (acute promyelocytic leukemia), MCF-7 (mammary adenocarcinoma), PC-3 (prostate adenocarcinoma), H1975 (non-small cell lung cancer—EGFR^L858R+T790M), PC-9 (non-small cell lung cancer—EGFR^L858R) H292 (mucoepidermoid pulmonary carcinoma—EGFR wild type), LoVo (colorectal adenocarcinoma—EGFRwild type) and GM16000 (lymphocyte). All the human cancer cell lines were purchased from Cell Bank of Rio de Janeiro—BCRJ. They were cultured in RPMI 1640 medium with 10% (v/v) FBS, 2 mM glutamine, at 37 °C in a humidified incubator containing 5% CO2.
(§3) The cytotoxicity of the compounds was evaluated by the MTT assay. […] For lymphocytic lines, a density of 0.3 × 10^6 cells/mL was used. Afterwards they were treated with varying concentrations of the target compounds 2–12 (0.0001–100 µM), CA-4 (1) and pelitinib at 37 °C, in triplicate. The medium was incubated with 20 μL of 5 mg/mL MTT solution for 3 h in a humidified incubator containing 5% CO2 [11].
(§4) The purple-colored formazan crystals formed in the wells were dissolved in DMSO and their absorbance was measured at 595 nm with a microplate reader (SpectraMax M5, Molecular Devices).

H1975 = experiment: MTT cell viability assay, H1975; details: for SI Lymphocyte/ H1975: 48 hours, MTT; for SI GM16000/ H1975: 72 h, ratio of CC50 values
Description: as §1, §2, §3, §4

H292 = experiment: MTT cell viability assay, H292; details: for SI Lymphocyte/ H292: 48 hours, MTT; for SI GM16000/ H292: 72 h, ratio of CC50 values
Description: as §1, §2, §3, §4

LoVo = experiment: MTT cell viability assay, LoVo; details: for SI Lymphocyte/ LoVo: 48 hours, MTT; for SI GM16000/ LoVo: 72 h, ratio of CC50 values
Description: as §1, §2
(§5) The cytotoxicity of the compounds was evaluated by the MTT assay. The cell lines were cultured in 96 well plates for 72 h with a density of 0.1 × 10^5 cells/mL to 0.7 × 10^5 cells/mL to adherent cell lines. For lymphocytic lines, a density of 0.3 × 10^6 cells/mL was used. Afterwards they were treated with varying concentrations of the target compounds 2–12 (0.0001–100 µM), CA-4 (1) and pelitinib at 37 °C, in triplicate. The medium was incubated with 20 μL of 5 mg/mL MTT solution for 3 h in a humidified incubator containing 5% CO2 [11].
as §4

MCF-7 = experiment: MTT cell viability assay, MCF-7; details: for SI GM16000/ MCF-7: 72 h, ratio of CC50 values
Description: as §1, §2, §5, §4

PC-3 = experiment: MTT cell viability assay, PC-3; details: 72 h; ratio of CC50 values
Description: as §1, §2, §5, §4

PC-9 = experiment: MTT cell viability assay, PC-9; details: for SI Lymphocyte/ PC-9: 48 hours, MTT; for SI GM16000/ PC-9: 72 h, ratio of CC50 values
Description: as §1, §2, §3, §4

COc1ccc(/C=C\c2cc(OC)c(OC)c(OC)c2)cc1O [CA-4 (1), Combretastatin A-4, reference compound]
SI GM16000/ HL-60 (HL-60): 0.8
SI Lymphocyte/ H1975 (H1975): 0.3
SI GM16000/ H1975 (H1975): 1.8
SI Lymphocyte/ H292 (H292): 0.2
SI GM16000/ H292 (H292): 4.5
SI Lymphocyte/ LoVo (LoVo): 0.1
SI GM16000/ LoVo (LoVo): 1.6
SI GM16000/ MCF-7 (MCF-7): 0.007
SI GM16000/ PC-3 (PC-3): 0.7
SI Lymphocyte/ PC-9 (PC-9): 0.6
SI GM16000/ PC-9 (PC-9): 6.4

COc1cc(C(=O)N/N=C/c2ccccc2)cc(OC)c1OC [LASSBio-1586 (2), (E)-N’-benzylidene-3,4,5-trimetoxybenzohydrazide]
SI Lymphocyte/ HL-60 (HL-60): 0.3
SI GM16000/ HL-60 (HL-60): 0.7
SI Lymphocyte/ H1975 (H1975): 0.45
SI GM16000/ H1975 (H1975): 1.0
SI Lymphocyte/ H292 (H292): 0.4
SI GM16000/ H292 (H292): 1.0
SI Lymphocyte/ LoVo (LoVo): 0.5
SI GM16000/ LoVo (LoVo): 39.0
SI GM16000/ LoVo (LoVo; listed as 2): 39
SI GM16000/ MCF-7 (MCF-7): 0.2
SI GM16000/ PC-3 (PC-3): 0.9
SI Lymphocyte/ PC-9 (PC-9): 1.0
SI GM16000/ PC-9 (PC-9): 2.6

COc1cc(C(=O)N(C)/N=C/c2ccccc2)cc(OC)c1OC [LASSBio-1735 (3), (E)-N’-benzylidene-3,4,5-trimethoxy-N-methylbenzohydrazide]
SI Lymphocyte/ HL-60 (HL-60): 0.09
SI GM16000/ HL-60 (HL-60): 3.4
SI Lymphocyte/ H1975 (H1975): 7.95
SI GM16000/ H1975 (H1975): 1.7
SI Lymphocyte/ H292 (H292): 5.0
SI GM16000/ H292 (H292): 0.5
SI Lymphocyte/ LoVo (LoVo): 1.6
SI GM16000/ LoVo (LoVo): 0.9
SI GM16000/ MCF-7 (MCF-7): 0.5
times more potent on MCF-7 than CA-4 (1) (MCF-7; MTT 72 h, ratio of CC50): 31 times
times more potent on MCF-7 than LASSBio-1586 (MCF-7; MTT 72 h, ratio of CC50): 27 times
SI GM16000/ PC-3 (PC-3): 0.6
SI Lymphocyte/ PC-9 (PC-9): 0.6
SI GM16000/ PC-9 (PC-9): 1.4

C=CCN(/N=C/c1ccccc1)C(=O)c1cc(OC)c(OC)c(OC)c1 [LASSBio-2069 (8), (E)-N-allyl-N’-benzylidene-3,4,5-trimethoxybenzohydrazide]
SI Lymphocyte/ HL-60 (HL-60): 2.3
SI GM16000/ HL-60 (HL-60): 0.6
SI Lymphocyte/ H1975 (H1975): 0.72
SI GM16000/ H1975 (H1975): 0.2
SI Lymphocyte/ H292 (H292): 7.7
SI GM16000/ H292 (H292): 1.0
SI Lymphocyte/ LoVo (LoVo): 1.5
SI GM16000/ LoVo (LoVo): 2.8
SI GM16000/ MCF-7 (MCF-7): 0.5
SI GM16000/ PC-3 (PC-3): 1.8
SI Lymphocyte/ PC-9 (PC-9): 4.3
SI GM16000/ PC-9 (PC-9): 2.1

COc1cc(C(=O)N(Cc2ccccc2)/N=C/c2ccccc2)cc(OC)c1OC [LASSBio-2070 (10), (E)-N-benzyl-N’-benzylidene-3,4,5-trimethoxybenzohydrazide]
SI Lymphocyte/ HL-60 (HL-60): 0.62
SI GM16000/ HL-60 (HL-60): 6.0
SI Lymphocyte/ H1975 (H1975): 3.5
SI GM16000/ H1975 (H1975): 0.4
SI GM16000/ H292 (H292): 1.2
SI Lymphocyte/ LoVo (LoVo): 1.2
SI GM16000/ LoVo (LoVo): 5.0
SI GM16000/ MCF-7 (MCF-7): 0.6
SI GM16000/ PC-3 (PC-3): 2.9
SI GM16000/ PC-9 (PC-9): 3.1

CCN(/N=C/c1ccccc1)C(=O)c1cc(OC)c(OC)c(OC)c1 [LASSBio-2071 (4), (E)-N’-benzylidene-N-ethyl-3,4,5-trimethoxybenzohydrazide]
SI GM16000/ HL-60 (HL-60): 22.2
SI GM16000/ H1975 (H1975): 1.0
SI Lymphocyte/ H292 (H292): 0.2
SI GM16000/ H292 (H292): 2.0
SI Lymphocyte/ LoVo (LoVo): 0.02
SI GM16000/ LoVo (LoVo): 17.0
SI GM16000/ MCF-7 (MCF-7): 4.1
SI GM16000/ PC-3 (PC-3): 3.0
SI Lymphocyte/ PC-9 (PC-9): 0.06
SI GM16000/ PC-9 (PC-9): 13.3

C#CCN(/N=C/c1ccccc1)C(=O)c1cc(OC)c(OC)c(OC)c1 [LASSBio-2072 (9), (E)-N’-benzylidene-3,4,5-trimethoxy-N-(prop-2-yn-1-yl)benzohydrazide]
SI Lymphocyte/ HL-60 (HL-60): 0.02
SI GM16000/ HL-60 (HL-60): 4.0
SI Lymphocyte/ H1975 (H1975): 0.02
SI GM16000/ H1975 (H1975): 0.2
SI Lymphocyte/ H292 (H292): 0.2
SI GM16000/ H292 (H292): 0.2
SI Lymphocyte/ LoVo (LoVo): 0.03
SI GM16000/ LoVo (LoVo): 1.5
SI GM16000/ MCF-7 (MCF-7): 0.3
SI GM16000/ PC-3 (PC-3): 0.3
SI Lymphocyte/ PC-9 (PC-9): 0.07
SI GM16000/ PC-9 (PC-9): 1.3

CCOC(=O)CN(/N=C/c1ccccc1)C(=O)c1cc(OC)c(OC)c(OC)c1 [LASSBio-2074 (11), Ethyl (E)-N-(benzylideneamino)-N-(3,4,5-trimethoxybenzoyl)glycinate]
SI Lymphocyte/ HL-60 (HL-60): 0.44
SI GM16000/ HL-60 (HL-60): 33.3
SI Lymphocyte/ H1975 (H1975): 0.52
SI GM16000/ H1975 (H1975): 3.5
SI Lymphocyte/ H292 (H292): 4.25
SI GM16000/ H292 (H292): 5.6
SI Lymphocyte/ LoVo (LoVo): 1.0
SI GM16000/ LoVo (LoVo): 39.5
SI GM16000/ MCF-7 (MCF-7): 4.8
SI GM16000/ PC-3 (PC-3): 3.0
SI Lymphocyte/ PC-9 (PC-9): 1.8
SI GM16000/ PC-9 (PC-9): 20.8

CCCN(/N=C/c1ccccc1)C(=O)c1cc(OC)c(OC)c(OC)c1 [LASSBio-2118 (5), (E)-N’-benzylidene-3,4,5-trimethoxy-N-propylbenzohydrazide]
SI Lymphocyte/ HL-60 (HL-60): 1.4
SI GM16000/ HL-60 (HL-60): 2.8
SI Lymphocyte/ H1975 (H1975): 2.2
SI GM16000/ H1975 (H1975): 1.1
SI Lymphocyte/ H292 (H292): 11.0
SI GM16000/ H292 (H292): 0.2
SI Lymphocyte/ LoVo (LoVo): 2.7
SI GM16000/ LoVo (LoVo): 27.2
SI GM16000/ MCF-7 (MCF-7): 5.9
SI GM16000/ PC-3 (PC-3): 1.9
SI Lymphocyte/ PC-9 (PC-9): 7.6
SI GM16000/ PC-9 (PC-9): 6.2

CCCCN(/N=C/c1ccccc1)C(=O)c1cc(OC)c(OC)c(OC)c1 [LASSBio-2121 (6), (E)-N’-benzylidene-N-butyl-3,4,5-trimethoxybenzohydrazide]
SI Lymphocyte/ HL-60 (HL-60): 0.42
SI GM16000/ HL-60 (HL-60): 0.4
SI Lymphocyte/ H1975 (H1975): 0.64
SI GM16000/ H1975 (H1975): 0.3
SI Lymphocyte/ H292 (H292): 5.0
SI GM16000/ H292 (H292): 0.1
SI Lymphocyte/ LoVo (LoVo): 0.54
SI GM16000/ LoVo (LoVo): 2.0
SI GM16000/ MCF-7 (MCF-7): 1.9
SI GM16000/ PC-3 (PC-3): 1.4
SI Lymphocyte/ PC-9 (PC-9): 3.35
SI GM16000/ PC-9 (PC-9): 10.0

COc1cc(C(=O)N(CCN2CCOCC2)/N=C/c2ccccc2)cc(OC)c1OC [LASSBio-2122 (12), (E)-N’-benzylidene-3,4,5-trimethoxy-N-(2-morpholinoethyl)benzohydrazide]
SI Lymphocyte/ HL-60 (HL-60): 0.18
SI GM16000/ HL-60 (HL-60): 1.4
SI Lymphocyte/ H1975 (H1975): 0.14
SI GM16000/ H1975 (H1975): 2.3
SI Lymphocyte/ H292 (H292): 2.3
SI GM16000/ H292 (H292): 2.0
SI Lymphocyte/ LoVo (LoVo): 0.9
SI GM16000/ LoVo (LoVo): 13.4
SI GM16000/ MCF-7 (MCF-7): 1.4
SI GM16000/ PC-3 (PC-3): 2.3
SI Lymphocyte/ PC-9 (PC-9): 0.6
SI GM16000/ PC-9 (PC-9): 6.5

CCOc1cc2ncc(C#N)c(Nc3ccc(F)c(Cl)c3)c2cc1NC(=O)/C=C/CN(C)C [Pelitinib, reference compound]
SI Lymphocyte/ HL-60 (HL-60): 0.3
SI GM16000/ HL-60 (HL-60): 1.3
SI Lymphocyte/ H1975 (H1975): 0.3
SI GM16000/ H1975 (H1975): 5.4
SI Lymphocyte/ H292 (H292): 2.0
SI GM16000/ H292 (H292): 35.3
SI Lymphocyte/ LoVo (LoVo): 0.5
SI GM16000/ LoVo (LoVo): 74.3
SI GM16000/ MCF-7 (MCF-7): 0.7
SI GM16000/ PC-3 (PC-3): 1.1
SI Lymphocyte/ PC-9 (PC-9): 2.8
SI GM16000/ PC-9 (PC-9): 46.5
